This is one part of the list.

The chains behind the UniProt entries cited, without tags or fusion partners. Where a name states a change or a piece, a line headed by the entry shows the natural chain unless it says otherwise.
UniProt Q86XK3: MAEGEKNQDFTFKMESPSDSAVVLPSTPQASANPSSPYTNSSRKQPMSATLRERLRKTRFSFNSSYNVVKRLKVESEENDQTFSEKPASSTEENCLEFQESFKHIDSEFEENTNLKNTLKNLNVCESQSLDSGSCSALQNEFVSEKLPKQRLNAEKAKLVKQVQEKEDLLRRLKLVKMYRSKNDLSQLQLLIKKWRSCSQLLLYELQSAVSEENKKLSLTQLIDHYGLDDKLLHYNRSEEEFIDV
UniProt Q15464: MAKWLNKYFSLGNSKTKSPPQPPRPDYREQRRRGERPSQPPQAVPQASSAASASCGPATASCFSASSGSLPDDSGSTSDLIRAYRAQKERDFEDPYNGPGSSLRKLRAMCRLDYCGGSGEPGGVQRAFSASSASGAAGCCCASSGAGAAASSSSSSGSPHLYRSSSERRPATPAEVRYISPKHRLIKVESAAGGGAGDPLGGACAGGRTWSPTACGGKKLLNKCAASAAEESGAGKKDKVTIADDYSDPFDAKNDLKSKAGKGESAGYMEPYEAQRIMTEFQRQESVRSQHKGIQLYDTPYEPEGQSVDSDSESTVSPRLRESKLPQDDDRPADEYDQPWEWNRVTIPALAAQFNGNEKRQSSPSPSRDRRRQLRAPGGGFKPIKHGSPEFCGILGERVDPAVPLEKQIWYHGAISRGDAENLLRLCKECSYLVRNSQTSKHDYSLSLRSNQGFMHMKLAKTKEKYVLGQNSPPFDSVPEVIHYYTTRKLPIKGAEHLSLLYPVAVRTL
UniProt Q02383: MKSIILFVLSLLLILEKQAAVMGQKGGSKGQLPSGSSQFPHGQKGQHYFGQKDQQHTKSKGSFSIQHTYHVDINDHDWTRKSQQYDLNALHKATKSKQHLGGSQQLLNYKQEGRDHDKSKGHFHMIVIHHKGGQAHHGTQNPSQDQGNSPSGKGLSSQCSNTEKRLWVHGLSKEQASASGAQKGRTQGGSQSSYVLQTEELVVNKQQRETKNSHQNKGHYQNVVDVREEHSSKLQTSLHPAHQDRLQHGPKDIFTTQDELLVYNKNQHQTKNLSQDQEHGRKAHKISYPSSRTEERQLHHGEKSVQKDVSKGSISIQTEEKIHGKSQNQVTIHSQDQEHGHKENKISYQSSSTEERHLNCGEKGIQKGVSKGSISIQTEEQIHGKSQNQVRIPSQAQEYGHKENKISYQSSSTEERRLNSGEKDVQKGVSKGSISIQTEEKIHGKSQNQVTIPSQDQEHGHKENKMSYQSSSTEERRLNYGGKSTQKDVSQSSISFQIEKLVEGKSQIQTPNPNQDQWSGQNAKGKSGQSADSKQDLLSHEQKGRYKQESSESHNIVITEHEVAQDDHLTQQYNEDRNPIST
UniProt P36952: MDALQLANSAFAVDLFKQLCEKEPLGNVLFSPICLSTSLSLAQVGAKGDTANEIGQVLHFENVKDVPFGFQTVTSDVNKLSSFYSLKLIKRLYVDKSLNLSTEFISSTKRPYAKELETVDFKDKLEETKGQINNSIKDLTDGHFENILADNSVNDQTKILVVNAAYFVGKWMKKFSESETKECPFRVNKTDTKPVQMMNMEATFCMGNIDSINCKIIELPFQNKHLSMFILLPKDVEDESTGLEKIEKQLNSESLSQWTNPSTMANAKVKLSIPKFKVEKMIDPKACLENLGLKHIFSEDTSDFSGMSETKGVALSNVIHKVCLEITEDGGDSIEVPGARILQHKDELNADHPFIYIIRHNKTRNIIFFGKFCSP
UniProt Q8N196: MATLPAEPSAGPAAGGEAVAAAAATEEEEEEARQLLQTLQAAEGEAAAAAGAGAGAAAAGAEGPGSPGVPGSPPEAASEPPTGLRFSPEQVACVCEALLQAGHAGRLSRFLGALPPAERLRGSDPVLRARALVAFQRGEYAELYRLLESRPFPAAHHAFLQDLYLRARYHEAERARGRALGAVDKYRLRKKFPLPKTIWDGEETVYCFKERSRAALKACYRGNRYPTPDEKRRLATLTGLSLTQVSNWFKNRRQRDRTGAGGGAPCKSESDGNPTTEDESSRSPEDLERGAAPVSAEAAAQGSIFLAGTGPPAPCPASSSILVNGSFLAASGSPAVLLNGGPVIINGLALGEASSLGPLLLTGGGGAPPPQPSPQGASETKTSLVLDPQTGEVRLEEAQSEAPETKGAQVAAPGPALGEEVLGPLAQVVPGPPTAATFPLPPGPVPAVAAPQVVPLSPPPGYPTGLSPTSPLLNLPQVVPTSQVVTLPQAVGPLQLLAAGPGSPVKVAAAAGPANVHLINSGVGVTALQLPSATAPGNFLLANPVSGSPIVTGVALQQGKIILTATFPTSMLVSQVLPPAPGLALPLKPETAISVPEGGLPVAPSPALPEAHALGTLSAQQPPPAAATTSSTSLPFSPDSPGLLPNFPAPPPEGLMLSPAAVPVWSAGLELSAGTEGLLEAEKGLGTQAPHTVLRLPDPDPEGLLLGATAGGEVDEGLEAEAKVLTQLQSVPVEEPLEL
UniProt O75635: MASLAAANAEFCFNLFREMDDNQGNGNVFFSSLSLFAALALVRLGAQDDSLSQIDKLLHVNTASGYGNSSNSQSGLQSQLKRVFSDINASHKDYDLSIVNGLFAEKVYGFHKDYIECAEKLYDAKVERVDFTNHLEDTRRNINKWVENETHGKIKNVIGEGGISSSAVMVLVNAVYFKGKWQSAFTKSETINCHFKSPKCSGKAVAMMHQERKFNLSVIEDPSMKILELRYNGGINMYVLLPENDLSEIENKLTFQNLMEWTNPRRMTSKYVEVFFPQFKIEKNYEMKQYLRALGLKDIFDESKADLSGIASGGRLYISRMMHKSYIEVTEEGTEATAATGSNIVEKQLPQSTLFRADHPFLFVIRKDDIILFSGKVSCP
UniProt Q99963: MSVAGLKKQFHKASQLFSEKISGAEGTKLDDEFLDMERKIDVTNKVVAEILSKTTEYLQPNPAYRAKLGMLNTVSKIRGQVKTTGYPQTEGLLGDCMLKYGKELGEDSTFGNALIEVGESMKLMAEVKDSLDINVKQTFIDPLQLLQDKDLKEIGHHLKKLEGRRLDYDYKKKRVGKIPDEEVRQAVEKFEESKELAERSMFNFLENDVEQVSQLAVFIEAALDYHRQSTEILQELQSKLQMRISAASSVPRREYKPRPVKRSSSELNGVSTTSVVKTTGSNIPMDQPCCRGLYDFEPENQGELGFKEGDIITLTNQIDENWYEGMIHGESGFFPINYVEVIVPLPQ
UniProt Q96T21: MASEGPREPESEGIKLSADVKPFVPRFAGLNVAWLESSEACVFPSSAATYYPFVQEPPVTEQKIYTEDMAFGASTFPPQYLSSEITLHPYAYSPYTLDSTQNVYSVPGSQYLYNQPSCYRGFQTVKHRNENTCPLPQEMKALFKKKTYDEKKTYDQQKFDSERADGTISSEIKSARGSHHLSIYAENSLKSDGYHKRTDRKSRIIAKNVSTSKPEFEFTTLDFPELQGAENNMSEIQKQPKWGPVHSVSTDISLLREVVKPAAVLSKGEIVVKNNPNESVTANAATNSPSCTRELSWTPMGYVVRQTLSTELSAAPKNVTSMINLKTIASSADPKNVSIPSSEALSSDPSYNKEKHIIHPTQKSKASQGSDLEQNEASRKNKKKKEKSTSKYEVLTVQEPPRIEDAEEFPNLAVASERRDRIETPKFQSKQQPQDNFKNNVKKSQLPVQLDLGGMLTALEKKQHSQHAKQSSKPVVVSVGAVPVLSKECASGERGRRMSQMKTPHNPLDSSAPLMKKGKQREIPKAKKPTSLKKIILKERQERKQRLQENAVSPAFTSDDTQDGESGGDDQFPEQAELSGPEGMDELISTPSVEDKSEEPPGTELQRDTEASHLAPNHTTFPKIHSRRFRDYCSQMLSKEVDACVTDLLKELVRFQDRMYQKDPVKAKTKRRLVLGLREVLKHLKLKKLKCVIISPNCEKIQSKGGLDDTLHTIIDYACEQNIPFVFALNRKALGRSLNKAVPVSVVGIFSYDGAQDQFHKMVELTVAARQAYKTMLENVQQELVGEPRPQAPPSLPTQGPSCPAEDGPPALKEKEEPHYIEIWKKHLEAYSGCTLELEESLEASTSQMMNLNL
UniProt Q9BYW2: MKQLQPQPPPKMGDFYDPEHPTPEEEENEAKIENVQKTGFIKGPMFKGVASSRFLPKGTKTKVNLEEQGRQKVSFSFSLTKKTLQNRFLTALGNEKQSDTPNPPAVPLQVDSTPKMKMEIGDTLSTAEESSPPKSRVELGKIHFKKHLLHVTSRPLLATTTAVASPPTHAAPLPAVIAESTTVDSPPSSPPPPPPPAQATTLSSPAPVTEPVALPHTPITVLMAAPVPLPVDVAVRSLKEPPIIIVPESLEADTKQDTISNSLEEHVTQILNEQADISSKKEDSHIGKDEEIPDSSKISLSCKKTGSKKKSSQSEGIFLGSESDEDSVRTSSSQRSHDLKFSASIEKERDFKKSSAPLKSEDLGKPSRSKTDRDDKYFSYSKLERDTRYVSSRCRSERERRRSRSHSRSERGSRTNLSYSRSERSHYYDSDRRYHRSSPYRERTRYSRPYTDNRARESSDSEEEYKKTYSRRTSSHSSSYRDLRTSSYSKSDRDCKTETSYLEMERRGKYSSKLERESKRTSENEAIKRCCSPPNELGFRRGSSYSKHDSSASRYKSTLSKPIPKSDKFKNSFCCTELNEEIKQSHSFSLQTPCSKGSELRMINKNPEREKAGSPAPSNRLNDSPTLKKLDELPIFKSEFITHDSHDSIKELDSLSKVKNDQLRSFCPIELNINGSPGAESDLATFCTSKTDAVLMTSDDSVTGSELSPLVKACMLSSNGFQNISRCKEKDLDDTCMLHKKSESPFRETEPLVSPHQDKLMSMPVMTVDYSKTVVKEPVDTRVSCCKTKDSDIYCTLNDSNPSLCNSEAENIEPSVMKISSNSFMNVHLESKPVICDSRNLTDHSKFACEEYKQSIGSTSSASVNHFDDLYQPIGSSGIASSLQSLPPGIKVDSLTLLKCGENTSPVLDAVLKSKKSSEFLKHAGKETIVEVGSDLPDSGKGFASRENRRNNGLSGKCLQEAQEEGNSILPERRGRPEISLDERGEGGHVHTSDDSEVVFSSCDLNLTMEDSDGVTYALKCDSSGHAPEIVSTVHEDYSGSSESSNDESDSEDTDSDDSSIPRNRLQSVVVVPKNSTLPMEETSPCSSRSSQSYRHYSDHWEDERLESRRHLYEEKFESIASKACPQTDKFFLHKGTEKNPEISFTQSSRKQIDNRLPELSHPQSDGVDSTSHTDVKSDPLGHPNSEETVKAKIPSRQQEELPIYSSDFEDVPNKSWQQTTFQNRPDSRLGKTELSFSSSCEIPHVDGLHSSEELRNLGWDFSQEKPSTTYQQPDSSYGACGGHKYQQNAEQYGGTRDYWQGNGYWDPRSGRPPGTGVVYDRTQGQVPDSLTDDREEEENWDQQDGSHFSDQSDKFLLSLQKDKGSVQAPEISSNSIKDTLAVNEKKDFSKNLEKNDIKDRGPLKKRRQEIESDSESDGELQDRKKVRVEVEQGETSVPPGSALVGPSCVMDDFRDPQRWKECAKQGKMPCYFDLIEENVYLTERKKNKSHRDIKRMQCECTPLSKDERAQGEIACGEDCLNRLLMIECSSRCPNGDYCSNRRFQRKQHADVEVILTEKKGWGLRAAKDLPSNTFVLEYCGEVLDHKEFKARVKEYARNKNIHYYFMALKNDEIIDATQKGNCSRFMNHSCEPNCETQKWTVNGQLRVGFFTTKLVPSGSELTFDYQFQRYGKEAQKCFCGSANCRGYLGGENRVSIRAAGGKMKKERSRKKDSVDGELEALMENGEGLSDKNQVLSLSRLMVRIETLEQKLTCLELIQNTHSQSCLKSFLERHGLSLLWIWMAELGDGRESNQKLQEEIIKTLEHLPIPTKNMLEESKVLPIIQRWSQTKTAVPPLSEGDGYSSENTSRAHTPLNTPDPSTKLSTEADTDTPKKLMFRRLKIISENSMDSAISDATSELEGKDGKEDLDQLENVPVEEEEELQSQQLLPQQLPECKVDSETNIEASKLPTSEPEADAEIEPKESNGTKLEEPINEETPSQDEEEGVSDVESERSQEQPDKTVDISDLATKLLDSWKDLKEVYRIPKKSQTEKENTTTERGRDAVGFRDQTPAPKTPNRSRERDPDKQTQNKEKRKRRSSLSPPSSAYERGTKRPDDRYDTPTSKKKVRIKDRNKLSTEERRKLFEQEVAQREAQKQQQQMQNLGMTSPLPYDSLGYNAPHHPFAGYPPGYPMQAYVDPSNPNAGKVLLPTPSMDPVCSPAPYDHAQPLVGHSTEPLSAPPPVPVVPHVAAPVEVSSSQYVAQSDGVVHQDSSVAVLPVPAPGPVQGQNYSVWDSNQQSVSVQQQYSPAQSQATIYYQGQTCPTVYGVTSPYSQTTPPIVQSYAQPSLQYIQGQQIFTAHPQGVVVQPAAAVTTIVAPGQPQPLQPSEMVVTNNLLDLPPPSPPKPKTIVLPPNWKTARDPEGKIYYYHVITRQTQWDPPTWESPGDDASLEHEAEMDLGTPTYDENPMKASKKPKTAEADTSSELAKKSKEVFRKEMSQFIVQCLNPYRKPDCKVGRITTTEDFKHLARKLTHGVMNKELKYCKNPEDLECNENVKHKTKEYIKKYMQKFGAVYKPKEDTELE

Compound in one assay: C1=CC2=NC=CN=C2C=C1/C=C/3\C(=O)NC(=O)S3
As to the kind of experiment: log2 fold change, soluble protein after heating vs DMSO (PISA); higher = thermal stabilisation; K562 cells, 10 uM, 30 min; active = over 0.2 and 3.5 SD of the protein, either way, in both replicates (recomputed). Put shortly:
(§1)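 Aliquots of K562 cells (2×10^6 cells/mL) treated with 10 μM compound for 30 min were heated for 3 min over 48°C-58°C. After pooling and extraction in PBS with 0.5% NP-40 at 4°C, soluble protein from a 21,000xg, 90 min spin was quantified by TMTpro 16plex LC-MS/MS with channel sums equalised. Thermal stability is expressed against control samples, from duplicates, as a log2 fold change.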
For the target SHFL (UniProt Q9NUL5), the log2 fold change was inactive: 0.004.

Regarding SFR1 isoform 2 (UniProt Q86XK3), the log2 fold change was inactive: 0.006.

Consider SHB (UniProt Q15464), for which the log2 fold change is inactive: -0.134.

In the case of SERPINB6, A0A2R8Y7E5, the log2 fold change is inactive: -0.251.

In the case of SIK2 (UniProt Q9H0K1), the log2 fold change was inactive: 0.27.

With SF1 (UniProt H7C0N4), the log2 fold change is inactive: 0.076.

In the case of SEMG2 (UniProt Q02383), the log2 fold change is inactive: -0.042.

SERPINB5 (UniProt P36952): the log2 fold change is inactive: -0.162.

Consider SIX5 (UniProt Q8N196), for which the log2 fold change was inactive: 0.022.

As for SERPINB7 (UniProt O75635), the log2 fold change is inactive: -0.031.

Consider SIAH2 (UniProt O43255), for which the log2 fold change is inactive: 0.045.

Compound in another assay: C1=CC=C(C=C1)C2=NC(=C(N2)C3=CC=NC=C3)C4=CC(=C(C=C4)Cl)O
The description is as above. Put shortly: as §1
For SH2D3A (UniProt Q9BRG2), the log2 fold change was inactive: -0.006.

For the target SEPTIN2 (UniProt B5MCX3), the log2 fold change is inactive: -0.463.

As to SFT2D1 (UniProt Q8WV19), the log2 fold change was inactive: -0.045.

In the case of SHFL (UniProt Q9NUL5), the log2 fold change was inactive: 0.013.

As for SFR1 isoform 2 (UniProt Q86XK3), the log2 fold change was inactive: -0.13.

For the target SKA2 (UniProt Q8WVK7), the log2 fold change was inactive: -0.103.

As for SIK2 (UniProt Q9H0K1), the log2 fold change is inactive: 0.02.

Consider SKA1 (UniProt Q96BD8), for which the log2 fold change was inactive: -0.037.

As to SF1 (UniProt H7C0N4), the log2 fold change was inactive: -0.033.

Regarding SERPINB5 (UniProt P36952), the log2 fold change is inactive: -0.197.

Turning to SH3GL3 isoform 3 (UniProt Q99963), the log2 fold change is inactive: -0.014.

For the target SF1 (UniProt H7BZT1), the log2 fold change is inactive: -0.157.

On to SIX5 (UniProt Q8N196), for which the log2 fold change is inactive: -0.011.

For SELENOI (UniProt Q9C0D9), the log2 fold change is inactive: 0.15.

On to SELENON (UniProt Q9NZV5), for which the log2 fold change was inactive: -0.126.

As for SECISBP2 (UniProt Q96T21), the log2 fold change was inactive: -0.078.

Take SEMA7A (UniProt O75326): the log2 fold change is inactive: -0.045.

As to SIAH2 (UniProt O43255), the log2 fold change is inactive: -0.05.

Compound in another assay: C1=CC=C2C(=C1)C3=NNC4=CC=CC(=C43)C2=O
Described as above. Put shortly: as §1
Turning to SEPTIN2 (UniProt B5MCX3), the log2 fold change is inactive: 0.035.

As for SFT2D1 (UniProt Q8WV19), the log2 fold change is inactive: 0.158.

For SHFL (UniProt Q9NUL5), the log2 fold change is inactive: -0.116.

In the case of SHB (UniProt Q15464), the log2 fold change is inactive: 0.036.

As to SF1 (UniProt H7C0N4), the log2 fold change was inactive: 0.055.

As to SEMG2 (UniProt Q02383), the log2 fold change is active: -0.562.

As for SIX5 (UniProt Q8N196), the log2 fold change is inactive: -0.084.

Regarding SELENON (UniProt Q9NZV5), the log2 fold change is inactive: -0.037.

In the case of SHROOM4 (UniProt Q9ULL8), the log2 fold change was inactive: -0.006.

For the target SERPINB7 (UniProt O75635), the log2 fold change is inactive: 0.06.

Take SETD2 (UniProt Q9BYW2): the log2 fold change was inactive: -0.03.

As to SHC1 (UniProt P29353), the log2 fold change was inactive: 0.032.

SIAH2 (UniProt O43255): the log2 fold change is inactive: -0.042.

Compound in a further assay: C1CCN(C1)C(=O)NC2=CC=CC(=C2)NC3=NC=C(C(=N3)NCCC4=CN=CN4)Br
The assay is described as above. Put shortly:
as §1
SEPTIN2 (UniProt B5MCX3): the log2 fold change is inactive: 0.217.

SHFL (UniProt Q9NUL5): the log2 fold change is inactive: -0.203.

SHB (UniProt Q15464): the log2 fold change is inactive: -0.198.

Take SF1 (UniProt H7C0N4): the log2 fold change was inactive: -0.161.

In the case of SERPINA12 (UniProt Q8IW75), the log2 fold change is inactive: -0.08.

As for SESN1 isoform 2 (UniProt Q9Y6P5), the log2 fold change was inactive: 0.018.

For the target SEMG2 (UniProt Q02383), the log2 fold change is inactive: -0.071.

Consider SERPINB5 (UniProt P36952), for which the log2 fold change was inactive: -0.045.

On to SH3GL3 isoform 3 (UniProt Q99963), for which the log2 fold change is inactive: -0.05.

In the case of SFXN1 (UniProt D6RDG7), the log2 fold change is inactive: 0.163.

Take SECISBP2 (UniProt Q96T21): the log2 fold change was inactive: -0.134.

Take SERPINB7 (UniProt O75635): the log2 fold change is inactive: -0.047.

For the target SETD2 (UniProt Q9BYW2), the log2 fold change was inactive: 0.019.

For the target SERPING1 isoform 3 (UniProt P05155), the log2 fold change is inactive: 0.109.

Compound in another assay: C1CN(CCC1(CC2=CC=C(C=C2)Cl)N)C3=NC=NC4=C3C=CN4
The assay is described as above. A digest of the protocol: as §1
For the target SEPTIN2 (UniProt B5MCX3), the log2 fold change was inactive: 0.091.

With SHFL (UniProt Q9NUL5), the log2 fold change is inactive: -0.295.

As to SHB (UniProt Q15464), the log2 fold change is inactive: 0.081.

With SF1 (UniProt H7C0N4), the log2 fold change is inactive: 0.006.

Consider SERPINA12 (UniProt Q8IW75), for which the log2 fold change is inactive: -0.355.

As for SESN1 isoform 2 (UniProt Q9Y6P5), the log2 fold change is inactive: -0.144.

As to SEMG2 (UniProt Q02383), the log2 fold change was inactive: 0.06.

SERPINB5 (UniProt P36952): the log2 fold change was inactive: -0.125.

With SH3GL3 isoform 3 (UniProt Q99963), the log2 fold change was inactive: 0.242.

In the case of SFXN1 (UniProt D6RDG7), the log2 fold change was inactive: 0.039.

As for SECISBP2 (UniProt Q96T21), the log2 fold change is inactive: 0.292.

Consider SERPINB7 (UniProt O75635), for which the log2 fold change was inactive: 0.085.

In the case of SETD2 (UniProt Q9BYW2), the log2 fold change is inactive: 0.259.

For the target SERPING1 isoform 3 (UniProt P05155), the log2 fold change is inactive: 0.15.

Values taken from the supplement of paper PMC10849652.
